Measured values taken from publication PMC5014167.
These are yes or no findings as the source states them, for the method shown. Binding seen in cells or lysates may run through a third protein. Some entries that bind do so weakly or less than the wild type. Where a sequence is shown, tags or fusion partners need not be part of it.

Experiments:
[1] = target: T1, GFP-fused BOP1 (GFP:BOP1) (Arabidopsis) (UniProt F4IH25); assay: co-IP; PES:Flag co-expressed with GFP fusions in N. benthamiana leaves by agroinfiltration; cell extracts immunoprecipitated with anti-GFP antibodies, co-precipitated PES:Flag detected by immunoblot with anti-Flag antibodies
T1 sequence: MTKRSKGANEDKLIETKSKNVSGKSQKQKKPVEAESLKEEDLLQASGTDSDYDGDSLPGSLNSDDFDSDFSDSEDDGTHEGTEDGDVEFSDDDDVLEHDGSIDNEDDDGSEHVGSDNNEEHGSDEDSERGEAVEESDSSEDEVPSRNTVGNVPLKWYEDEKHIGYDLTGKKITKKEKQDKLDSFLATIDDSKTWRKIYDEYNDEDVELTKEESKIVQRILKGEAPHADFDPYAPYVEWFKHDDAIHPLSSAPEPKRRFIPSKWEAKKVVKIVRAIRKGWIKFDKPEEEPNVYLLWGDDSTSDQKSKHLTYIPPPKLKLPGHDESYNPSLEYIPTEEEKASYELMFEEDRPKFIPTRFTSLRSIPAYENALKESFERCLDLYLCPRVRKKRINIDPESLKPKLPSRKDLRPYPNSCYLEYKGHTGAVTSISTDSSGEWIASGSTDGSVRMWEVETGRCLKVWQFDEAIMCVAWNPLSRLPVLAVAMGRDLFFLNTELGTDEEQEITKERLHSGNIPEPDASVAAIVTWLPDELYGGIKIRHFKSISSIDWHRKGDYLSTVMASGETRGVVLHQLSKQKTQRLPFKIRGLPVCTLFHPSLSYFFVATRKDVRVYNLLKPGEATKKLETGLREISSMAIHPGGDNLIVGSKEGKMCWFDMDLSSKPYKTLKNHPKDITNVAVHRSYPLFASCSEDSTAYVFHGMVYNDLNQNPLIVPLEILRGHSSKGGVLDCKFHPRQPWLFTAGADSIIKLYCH

[2] = target: T2, GFP-fused WDR12 (GFP:WDR12) (Arabidopsis) (UniProt Q9LF27); assay: as above
T2 sequence: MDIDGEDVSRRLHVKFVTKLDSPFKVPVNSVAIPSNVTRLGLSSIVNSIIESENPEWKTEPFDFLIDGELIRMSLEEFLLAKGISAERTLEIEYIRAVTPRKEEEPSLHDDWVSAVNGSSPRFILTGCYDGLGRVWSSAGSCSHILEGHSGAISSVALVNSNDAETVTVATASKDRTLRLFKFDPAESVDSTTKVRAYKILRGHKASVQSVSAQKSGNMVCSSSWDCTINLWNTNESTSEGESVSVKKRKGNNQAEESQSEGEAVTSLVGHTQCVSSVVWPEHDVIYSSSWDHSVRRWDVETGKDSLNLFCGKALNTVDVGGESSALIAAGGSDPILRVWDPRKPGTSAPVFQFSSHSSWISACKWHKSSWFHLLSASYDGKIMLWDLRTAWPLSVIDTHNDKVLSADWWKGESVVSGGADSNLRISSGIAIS

binding [1]: binds
binding [2]: binds
B1: Flag-fused PES (PES:Flag) (protein, UniProt Q9LYK7 1-590)
chain: MPKHYRPTGKKKEGNAARYMTRSQALKHLQVNLNLFRRLCIVKGIFPREPKKKIKGNHHTYYHVKDIAFLMHEPLLEKFREIKTYQKKVKKAKAKKNEELARLLLTRQPTYKLDRLIRERYPTFIDALRDLDDCLTMVHLFAVLPASDRENLEVKRVHNCRRLTHEWQAYISRSHALRKVFVSVKGIYYQAEIEGQKITWLTPHAIQQVFTNDVDFGVLLTFLEFYETLLAFINFKLYHSLNVKYPPILDSRLEALAADLYALSRYIDASSRGMAVEPKVDASFSSQSNDREESELRLAQLQHQLPSSEPGALMHLVADNNKEVEEDEETRVCKSLFKDLKFFLSREVPRESLQLVITAFGGMVSWEGEGAPFKEDDESITHHIIDKPSAGHLYLSRVYVQPQWIYDCVNARIILPTEKYLVGRIPPPHLSPFVDNEAEGYVPDYAETIKRLQAAARNEVLPLPGVGKEDLEDPQNLLYAGVMSRAEEAEAAKNKKKMAAQEKQYHEELKMEINGSKDVVAPVLAEGEGEESVPDAMQIAQEDADMPKVLMSRKKRKLYDAMKISQSRKRSGVEIIEQRKKRLNDTQPSS
